Assay results from PubChem BioAssay AID2417 (National Center for Advancing Translational Sciences (NCATS), 2010).
The whole screen tested about 140,000 compounds, of which about 4,300 (3.1%) were called active. The shares of active, inactive and inconclusive entries below differ from those in the screen.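 How the source made its calls: active means readout at or below -70, meaning at least 70% loss of cells showing the perinucleolar compartment, a nuclear body marking cancer cells; inconclusive means readout between -30 and a set limit; inactive means the rest.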

Assay: High Content Assay for Compounds that inhibit the Assembly of the Perinucleolar Compartment;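 further: plate controls were DMSO wells for no effect and camptothecin positive control wells for full effect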
Conditions: PC3M PTB-GFP, PNC prevalence imaging, 16 h; at 10 µM; hits give low values
Procedure, shortened: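 PC3M cells stably expressing PTB-GFP, 750–1000 cells/well, treated 16 h at 37 °C with compound (23 nl of library stock), in duplicate. After paraformaldehyde fixation and Hoechst stain, imaged at 20x; PNC prevalence scored by image analysis.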
For `COc1cccc(/C=N/NC(=O)CO/N=C(\C)c2cccs2)c1OC`, the activity change (PNC), negative = inhibition was inconclusive: -46.9%. For `C=C(C)CSc1nnc(-c2ccc(OC)c(OC)c2)n1N`, the activity change (PNC), negative = inhibition was inconclusive: -31.6%. For `Cc1nonc1NC(=O)c1ccccc1Br`, the activity change (PNC), negative = inhibition was inactive: -15.2%. With `COc1cc2cc(C(=O)O)n(C)c2c(OC)c1OC` the activity change (PNC), negative = inhibition was inconclusive: -44.6%. In the case of `O=C(NCc1ccc(F)cc1)C(=O)NCC1OCCN1C(=O)c1cccs1` (stereo not given), the activity change (PNC), negative = inhibition is reported as inconclusive: -65%. With `Cc1cc(C)n2cc(CSc3nc4ccccc4[nH]3)nc2n1` the activity change (PNC), negative = inhibition was inconclusive: -42.3%. For `O=C(NNC(=O)C1CC1c1ccccc1)Nc1cccc(Cl)c1` (stereo not given), the activity change (PNC), negative = inhibition was inconclusive: -49.7%. In the case of `CCNC(=O)CC1C(=O)N(c2ccc(OC)cc2)C(=O)N1Cc1ccc(OC)cc1` (stereo not given), the activity change (PNC), negative = inhibition is reported as inconclusive: -42.6%. In the case of `CCn1c(CC(=O)Nc2ccc(Cl)c(Cl)c2)nnc1SCc1ccc(Cl)cc1`, the activity change (PNC), negative = inhibition is reported as inconclusive: -35.4%. In the case of `NC(=O)c1ccccc1NC(=S)NC(=O)CCc1ccccc1`, the activity change (PNC), negative = inhibition is reported as active: -108%. For `Cn1c(=O)c2c(nc(SCCN3CCOCC3)n2Cc2ccccc2)n(C)c1=O`, the activity change (PNC), negative = inhibition was inconclusive: -33.1%. With `CCOc1ccc(NC(=O)CCS(=O)(=O)c2ccc3c(c2)CCCN3C(=O)CC)cc1` the activity change (PNC), negative = inhibition was inconclusive: -62.5%. With `O=C(NC(=S)NCc1ccc2c(c1)OCO2)c1ccccc1` the activity change (PNC), negative = inhibition was inactive: 67.4%. For `CCCn1c(N)c(C(=O)CSc2nnc(Cc3ccccc3)o2)c(=O)n(C)c1=O`, the activity change (PNC), negative = inhibition was active: -100%. For `COC(=O)c1ccc(NC(=O)CN(c2ccc(C)cc2)S(=O)(=O)c2c(C)n[nH]c2C)cc1`, the activity change (PNC), negative = inhibition was inconclusive: -34.6%. For `COc1ccnc(N2CCN(c3cccc(C(F)(F)F)c3)CC2)c1C#N`, the activity change (PNC), negative = inhibition was inactive: 33.9%. For `CN1CCN(c2nc3c(c(=O)[nH]c(=O)n3C)n2CCCSc2ncccn2)CC1`, the activity change (PNC), negative = inhibition was inconclusive: -30.2%. In the case of `COc1ccc2c(c1)cc1n2CCN2CCCN=C12`, the activity change (PNC), negative = inhibition is reported as inconclusive: -47.7%. For `COC(=O)c1c(NC(=O)Cc2cccs2)sc(C)c1C`, the activity change (PNC), negative = inhibition was inactive: -13.7%. For `NNC(=O)CNC(c1ccccc1)c1cc(Br)ccc1NC(=O)c1cccc(Cl)c1` (stereo not given), the activity change (PNC), negative = inhibition was inconclusive: -46.1%. For `C[C@@H](C(=O)NCCc1c[nH]c2ccccc12)[C@@H]1C[C@@]1(C)[C@@H](NC(=O)OCc1ccccc1)c1ccccc1`, the activity change (PNC), negative = inhibition was inconclusive: -71.7%. With `Cc1ccc2c(c1)c1c3n2CC(=C2C(=O)OC(C)(C)OC2=O)NC3CCC1` (stereo not given) the activity change (PNC), negative = inhibition was inactive: 7.57%. In the case of `Cc1ccc2cc(CN(CC3CCCO3)C(=S)NCc3ccco3)c(=O)[nH]c2c1C` (stereo not given), the activity change (PNC), negative = inhibition is reported as inconclusive: -58%. With `Cc1ccccc1OCCNC(=O)CNC(=O)c1ccccc1O` the activity change (PNC), negative = inhibition was inconclusive: -35.3%. In the case of `Cc1ccc(N(CC(=O)NCc2ccco2)S(=O)(=O)c2ccccc2)cc1`, the activity change (PNC), negative = inhibition is reported as inactive: -8.49%. In the case of `Cc1ccc(S(=O)(=O)N2CCC(C(=O)O)CC2)cc1C(=O)O`, the activity change (PNC), negative = inhibition is reported as inconclusive: -79.2%. With `CCOc1ccc(C(CC(=O)O)NC(=O)c2ccco2)cc1` (stereo not given) the activity change (PNC), negative = inhibition was inactive: -26.8%. In the case of `Cc1ccccc1N(CC(=O)NCC1CCCO1)C(=O)C1(C)CC(=O)N=C2C=CC=CN21` (stereo not given), the activity change (PNC), negative = inhibition is reported as inconclusive: -43.4%. For `Cc1onc(-c2ccccc2)c1C(=O)NC(C)C1CCCO1` (stereo not given), the activity change (PNC), negative = inhibition was inconclusive: -70.9%. For `C=CCn1c(SCC(=O)c2ccccc2)nnc1-c1ccc2c(c1)OCO2`, the activity change (PNC), negative = inhibition was inactive: -27%. For `O=C(Nc1ccccc1N1CCN(C(=O)c2ccccc2)CC1)c1cc2ccccc2o1`, the activity change (PNC), negative = inhibition was inconclusive: -71%. With `Nc1nn(-c2ccccc2)c(N)c1N=Nc1ccccc1F` the activity change (PNC), negative = inhibition was inconclusive: -49.8%. With `CC1CCC(NC(=O)C2CCN(C(=O)NC3CCCCC3)CC2)CC1` (stereo not given) the activity change (PNC), negative = inhibition was inconclusive: -52.1%. In the case of `Cc1nn(-c2cc(N3CCCCC3)ccc2N)c(=O)c2ccccc12`, the activity change (PNC), negative = inhibition is reported as active: -119%. With `CC(C)c1nnc(NC(=O)C2CCN(c3cnccn3)CC2)s1` the activity change (PNC), negative = inhibition was inactive: 23.8%. For `CCC(=O)N(Cc1ccco1)c1nc(-c2cc(OC)ccc2OC)cs1`, the activity change (PNC), negative = inhibition was active: -100%. For `COc1ccc2cc(C(c3nnnn3C(C)(C)C)N3CCSCC3)c(=O)[nH]c2c1` (stereo not given), the activity change (PNC), negative = inhibition was inconclusive: -30.4%. For `O=C(CSc1nnc(Cc2cccs2)n1Cc1ccco1)Nc1cccc(Cl)c1`, the activity change (PNC), negative = inhibition was inconclusive: -62.7%. In the case of `Cc1cc(C(=O)Cn2nc(C(=O)O)c3ccccc3c2=O)c(C)n1-c1ccc(F)cc1`, the activity change (PNC), negative = inhibition is reported as inconclusive: -41.6%. For `CN1CCN(CC(=O)N2c3ccccc3C(C)(c3ccccc3)CC2(C)C)CC1` (stereo not given), the activity change (PNC), negative = inhibition was inconclusive: -40.3%. In the case of `CC(C)C(=O)N1CCN(c2ccc(NC(=O)c3cccs3)cc2)CC1`, the activity change (PNC), negative = inhibition is reported as active: -100%. For `Cc1ccc2c(CC(=O)NCC3COc4ccccc4O3)coc2c1` (stereo not given), the activity change (PNC), negative = inhibition was inconclusive: -40%. With `COC(=O)/C=C/C(=O)N1CCN(c2ccccc2C)CC1` the activity change (PNC), negative = inhibition was inactive: -3.64%. In the case of `CC1CCC2C(=O)N(c3ccc(S(=O)(=O)c4ccccc4)cc3)C(=O)C2C1` (stereo not given), the activity change (PNC), negative = inhibition is reported as inconclusive: -40.2%. In the case of `NC(=O)c1ccc(C(=O)c2ccc([N+](=O)[O-])cc2)cc1`, the activity change (PNC), negative = inhibition is reported as inconclusive: -62.5%.
